# Reference: US20060110468A1, “Herbal formulations for arthritis” (priority 2004, published 2006)
# At least one structure is not confirmed: it was looked up by name or label, or the drawing left a doubt.
# System: writhing activity of mice induced by acetic acid
# Assay: Acetic acid writhing test in mice
# Assay type: in vivo, ICR mice
# Settings: one hour after administration; tetrahydropalmatine 0.09 g/kg, sinomenine 0.0375 g/kg, capsule 12.7 g/kg and 25.50 g/kg
# Method: In the writhing test, acetic acid is injected into the intraperitoneal cavity of mice. This induces acute inflammatory pain characterized by a contraction wave of abdominal musculature through stretching of the hind limbs that is called writhing, and the number of writhing episodes is evaluated.
# Male and female ICR mice weighing 18 g to 25 g were fasted for one day before the test. […] The animals were then placed in individual 101×15 cm Plexiglas observation chambers for a 10-min acclimatization period. Acetic acid, 0.8% in 0.85% saline was injected i.p. into each mouse the animals were then returned into their respective transparent chambers.
# The animals were then observed for a specific period (15 or 20 mins) and the number of writhing episodes was counted. For scoring purpose, a writhe was indicated by a contraction wave of abdominal musculature with simultaneous stretching of at least one hind limb.
# Values are presented as mean±SD.
structure (smiles),measurement,value
COc1cc2c(cc1OC)[C@@H]1Cc3ccc(OC)c(OC)c3CN1CC2 [Tetrahydropalmatine],inhibition to the writhing activity of mice induced by acetic acid (in words),significant compared to control group
